According to publication PMC3352829:
These are yes or no findings as the source states them, for the method shown. For some assays here: Binding calls can cover weak binding; strength is not graded here.

How the values were obtained:
[1] = biological target: T1, Burkholderia glumae lipase-specific foldase (Lif) (Burkholderia glumae) (UniProt Q05490); assay: pull-down; IMAC column retention on a NiNTA spin column: 30 ug LipA-Lif complex in 400 ul 100 mM Tris-HCl pH 8.0 (native conditions, no guHCl), 16 h at 25 C; His-tagged Lif held on the column; eluted with 400 mM imidazole; SDS-PAGE; both purified
T1 sequence: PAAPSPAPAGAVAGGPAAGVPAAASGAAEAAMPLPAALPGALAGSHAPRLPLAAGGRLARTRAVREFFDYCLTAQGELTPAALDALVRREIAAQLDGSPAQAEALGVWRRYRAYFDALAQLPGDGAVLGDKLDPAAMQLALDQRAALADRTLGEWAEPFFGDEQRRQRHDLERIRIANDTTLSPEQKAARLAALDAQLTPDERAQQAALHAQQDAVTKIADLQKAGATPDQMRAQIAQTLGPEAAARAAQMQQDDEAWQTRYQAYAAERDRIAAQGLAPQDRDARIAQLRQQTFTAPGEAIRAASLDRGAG

[2] = biological target: T1, Burkholderia glumae lipase-specific foldase (Lif) (Burkholderia glumae); assay: pull-down; IMAC column retention on a NiNTA spin column: 30 ug LipA-Lif complex pre-incubated 16 h at 25 C in 100 mM Tris-HCl pH 8.0 with 1.2 M guHCl (LipA as LipAg); His-tagged Lif held on the column; eluted with 400 mM imidazole; SDS-PAGE; both purified

With “Burkholderia glumae lipase (LipA; EC 3.1.1.3) (enzyme)” the binding [1] was “binds” and the binding [2] was “no binding (only with 1.2 M guHCl)”.
